In patent US20260034237 (published 2026) one finds conjugation yield data, which are given here for three substances.

This data set is described as follows: general procedure: solution-phase peptide synthesis; HATU/DIPEA. The settings on record: conjugation step.

Consider “4-((2S,5S,8S,35S,36R,37R,38R)-8-(6-(2,5-dioxo-2,5-dihydro-1H-pyrrol-1-yl)hexanamido)-35,36,37,38,39-pentahydroxy-5-isopropyl-4,7,14-trioxo-33-((2S,3R,4R,5R)-2,3,4,5,6-pentahydroxyhexyl)-2-(3-ureidopropyl)-15,18,21,24,27,30-hexaoxa-3,6,13,33-tetraazanonatriacontanamido)benzyl ((S)-1-(((S)-1-(((3S,4S,5S)-1-((S)-2-((1R,2R)-3-(((1R,2S)-1-hydroxy-1-phenylpropan-2-yl)amino)-1-methoxy-2-methyl-3-oxopropyl)pyrrolidin-1-yl)-3-methoxy-5-methyl-1-oxoheptan-4-yl)(methyl)amino)-3-methyl-1-oxobutan-2-yl)amino)-3-methyl-1-oxobutan-2-yl)(methyl)carbamate”, for which the conjugation yield is recorded as 28.23%.
To “{4-[(2S)-5-(carbamoylamino)-2-[(2S)-2-[(2S)-2-[6-(2,5-dioxo-2,5-dihydro-1H-pyrrol-1-yl)hexanamido]-6-(2-{4-[(16S,17R,18R,19R)-16,17,18,19,20-pentahydroxy-14-[(2S,3R,4R,5R)-2,3,4,5,6-pentahydroxyhexyl]-2,5,8,11-tetraoxa-14-azaicosan-1-yl]-1H-1,2,3-triazol-1-yl}acetamido)hexanamido]-3-methylbutanamido]pentanamido]phenyl}methyl N-[(1S)-1-{[(1S)-1-{[(3S,4S,5S)-1-[(2S)-2-[(1R,2R)-2-{[(1R,2S)-1-hydroxy-1-phenylpropan-2-yl]carbamoyl}-1-methoxy-2-methylethyl]pyrrolidin-1-yl]-3-methoxy-5-methyl-1-oxoheptan-4-yl](methyl)carbamoyl}-2-methylpropyl]carbamoyl}-2-methylpropyl]-N-methylcarbamate” belongs 54.43%; to “{4-[(2S)-5-(carbamoylamino)-2-[(2S)-2-[(2S)-2-[6-(2,5-dioxo-2,5-dihydro-1H-pyrrol-1-yl)hexanamido]-6-({1-[(17S,18R,19R,20R)-17,18,19,20,21-pentahydroxy-15-[(2S,3R,4R,5R)-2,3,4,5,6-pentahydroxyhexyl]-3,6,9,12-tetraoxa-15-azahenicosan-1-yl]-1H-1,2,3-triazol-5-yl}formamido)hexanamido]-3-methylbutanamido]pentanamido]phenyl}methyl N-[(1S)-1-{[(1S)-1-{[(3S,4S,5S)-1-[(2S)-2-[(1R,2R)-2-{[(1R,2S)-1-hydroxy-1-phenylpropan-2-yl]carbamoyl}-1-methoxy-2-methylethyl]pyrrolidin-1-yl]-3-methoxy-5-methyl-1-oxoheptan-4-yl](methyl)carbamoyl}-2-methylpropyl]carbamoyl}-2-methylpropyl]-N-methylcarbamate”, 41.14%.
